Assay [1] concerns the target L1-70-Myc. In words: ELISA; purified L1-70-Myc coated in PBS on 96-well plates; purified Top1-HA at 0.1, 0.5, 1, 5 and 10 nM, 2 h at 37 °C; detection with rabbit anti-HA, TMB; both purified.
The target in assay [2] is L1-70-Myc (AAV-L1-70-Myc). In words: proximity ligation; Duolink with antibodies against Myc and HA on cells transduced with AAV-L1-70-Myc and AAV-Top1-HA (U87 cells by the legend, cultured hippocampal cells by the text); cells with one virus only as controls.

Results are given in words; binding and its absence hold for the method and conditions named. Binding calls can cover weak binding; strength is not graded here. Tags and fused reporters may be left off the sequences shown. For some assays here: In cells and extracts the contact can be indirect.

B1: Top1-HA (enzyme, UniProt Q04750 1-767)
chain: MSGDHLHNDSQIEADFRLNDSHKHKDKHKDREHRHKEHKKDKDKDREKSKHSNSEHKDSEKKHKEKEKTKHKDGSSEKHKDKHKDRDKERRKEEKIRAAGDAKIKKEKENGFSSPPRIKDEPEDDGYFAPPKEDIKPLKRLRDEDDADYKPKKIKTEDIKKEKKRKSEEEEDGKLKKPKNKDKDKKVAEPDNKKKKPKKEEEQKWKWWEEERYPEGIKWKFLEHKGPVFAPPYEPLPESVKFYYDGKVMKLSPKAEEVATFFAKMLDHEYTTKEIFRKNFFKDWRKEMTNDEKNTITNLSKCDFTQMSQYFKAQSEARKQMSKEEKLKIKEENEKLLKEYGFCVMDNHRERIANFKIEPPGLFRGRGNHPKMGMLKRRIMPEDIIINCSKDAKVPSPPPGHKWKEVRHDNKVTWLVSWTENIQGSIKYIMLNPSSRIKGEKDWQKYETARRLKKCVDKIRNQYREDWKSKEMKVRQRAVALYFIDKLALRAGNEKEEGETADTVGCCSLRVEHINLHPELDGQEYVVEFDFPGKDSIRYYNKVPVEKRVFKNLQLFMENKQPEDDLFDRLNTGILNKHLQDLMEGLTAKVFRTYNASITLQQQLKELTAPDENVPAKILSYNRANRAVAILCNHQRAPPKTFEKSMMNLQSKIDAKKDQLADARRDLKSAKADAKVMKDAKTKKVVESKKKAVQRLEEQLMKLEVQATDREENKQIALGTSKLNYLDPRITVAWCKKWGVPIEKIYNKTQREKFAWAIDMTDEDYEF
As for B1, the binding entry in assay [1] is on record as “binds”.

B2: Top1-HA (AAV-Top1-HA) (enzyme, UniProt Q04750 1-767)
chain: MSGDHLHNDSQIEADFRLNDSHKHKDKHKDREHRHKEHKKDKDKDREKSKHSNSEHKDSEKKHKEKEKTKHKDGSSEKHKDKHKDRDKERRKEEKIRAAGDAKIKKEKENGFSSPPRIKDEPEDDGYFAPPKEDIKPLKRLRDEDDADYKPKKIKTEDIKKEKKRKSEEEEDGKLKKPKNKDKDKKVAEPDNKKKKPKKEEEQKWKWWEEERYPEGIKWKFLEHKGPVFAPPYEPLPESVKFYYDGKVMKLSPKAEEVATFFAKMLDHEYTTKEIFRKNFFKDWRKEMTNDEKNTITNLSKCDFTQMSQYFKAQSEARKQMSKEEKLKIKEENEKLLKEYGFCVMDNHRERIANFKIEPPGLFRGRGNHPKMGMLKRRIMPEDIIINCSKDAKVPSPPPGHKWKEVRHDNKVTWLVSWTENIQGSIKYIMLNPSSRIKGEKDWQKYETARRLKKCVDKIRNQYREDWKSKEMKVRQRAVALYFIDKLALRAGNEKEEGETADTVGCCSLRVEHINLHPELDGQEYVVEFDFPGKDSIRYYNKVPVEKRVFKNLQLFMENKQPEDDLFDRLNTGILNKHLQDLMEGLTAKVFRTYNASITLQQQLKELTAPDENVPAKILSYNRANRAVAILCNHQRAPPKTFEKSMMNLQSKIDAKKDQLADARRDLKSAKADAKVMKDAKTKKVVESKKKAVQRLEEQLMKLEVQATDREENKQIALGTSKLNYLDPRITVAWCKKWGVPIEKIYNKTQREKFAWAIDMTDEDYEF
Regarding B2, in assay [2], the binding result is recorded as “binds”.

The record behind these values is publication PMC8748658.
